Patent US20260002127A1
Results are given in words; binding and its absence hold for the method and conditions named. Some entries that bind do so weakly or less than the wild type.

What was measured:
[1] = target: T1, C-reactive protein (rCRP) (manufactured by Oriental Yeast Co., Ltd.) (UniProt P02741); assay: Western blot; rCRP after SDS-PAGE on PVDF membrane, HRP goat anti-rabbit IgG secondary
T1 sequence (looked up): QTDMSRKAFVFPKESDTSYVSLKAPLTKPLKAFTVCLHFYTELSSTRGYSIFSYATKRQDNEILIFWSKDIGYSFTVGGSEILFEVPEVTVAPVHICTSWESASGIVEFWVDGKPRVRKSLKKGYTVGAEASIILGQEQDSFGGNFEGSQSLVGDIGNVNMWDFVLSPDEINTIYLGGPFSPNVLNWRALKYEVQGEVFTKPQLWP

[2] = target: T1, C-reactive protein (rCRP) (manufactured by Oriental Yeast Co., Ltd.); assay: ELISA; rCRP (0.5 µg/mL) immobilized on plate, culture supernatant, HRP-labeled anti-rabbit IgG detection

binding [1]: binds
binding [2]: binds
B1: anti-rCRP rabbit monoclonal antibody (antibody, V domains shown)
VH: QSVEESGGRLVKPDETLTLTCTVSGIDLSSDAMSWVRQAPGKGLEYIGIISSSGSTYYASWAKGRFTISRTSTTVDLKMTSPTTEDTATYFCARVADGVYRGVVLVSYLNLWGPGTLVTVSS
VL: AQVLTQTPSSVSAAVGGTVTINCQSSPSVFSNYLSWYQQKPGQPPKLLIYRASTLASGGPSRFKGSGSGAQFTLTISDVQCDDAATYYCAGGYTTTSDGYAFGGGTEVVVKG
